Two substances from paper PMC5543739 can be followed below.

Sequences of proteins named here, by UniProt entry; tags and fusion partners are left off.
UniProt P08047: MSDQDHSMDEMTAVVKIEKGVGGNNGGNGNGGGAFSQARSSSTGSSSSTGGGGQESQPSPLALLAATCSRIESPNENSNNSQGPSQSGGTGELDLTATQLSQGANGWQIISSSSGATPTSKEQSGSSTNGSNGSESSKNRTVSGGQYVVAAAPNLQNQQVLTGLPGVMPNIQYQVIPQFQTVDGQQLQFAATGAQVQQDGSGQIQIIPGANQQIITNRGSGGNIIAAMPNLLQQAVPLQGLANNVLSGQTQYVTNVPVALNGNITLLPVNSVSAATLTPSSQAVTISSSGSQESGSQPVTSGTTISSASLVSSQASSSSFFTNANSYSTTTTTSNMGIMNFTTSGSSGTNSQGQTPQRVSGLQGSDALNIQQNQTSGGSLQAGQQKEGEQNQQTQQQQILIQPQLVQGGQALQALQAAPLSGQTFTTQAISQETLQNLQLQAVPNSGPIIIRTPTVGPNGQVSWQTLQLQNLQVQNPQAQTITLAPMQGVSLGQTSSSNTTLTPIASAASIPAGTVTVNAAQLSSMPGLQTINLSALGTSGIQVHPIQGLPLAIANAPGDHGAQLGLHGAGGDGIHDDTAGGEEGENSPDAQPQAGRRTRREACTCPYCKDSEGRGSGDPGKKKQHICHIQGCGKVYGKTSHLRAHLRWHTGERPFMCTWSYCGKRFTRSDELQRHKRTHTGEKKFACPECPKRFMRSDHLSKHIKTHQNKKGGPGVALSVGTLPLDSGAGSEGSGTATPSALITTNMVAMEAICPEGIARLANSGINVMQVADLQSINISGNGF

These are yes or no findings as the source states them, for the method shown. In cells and extracts the contact can be indirect. Some entries that bind do so weakly or less than the wild type. For part of these data: Tags and fused reporters may be left off the sequences shown.

Experiment [1] deals with T1, NFATc2 (nuclear factor of activated T-cells c2), endogenous in PaTu 8988t cells (human (endogenous in PaTu 8988t)) (UniProt Q13469).
T1 sequence: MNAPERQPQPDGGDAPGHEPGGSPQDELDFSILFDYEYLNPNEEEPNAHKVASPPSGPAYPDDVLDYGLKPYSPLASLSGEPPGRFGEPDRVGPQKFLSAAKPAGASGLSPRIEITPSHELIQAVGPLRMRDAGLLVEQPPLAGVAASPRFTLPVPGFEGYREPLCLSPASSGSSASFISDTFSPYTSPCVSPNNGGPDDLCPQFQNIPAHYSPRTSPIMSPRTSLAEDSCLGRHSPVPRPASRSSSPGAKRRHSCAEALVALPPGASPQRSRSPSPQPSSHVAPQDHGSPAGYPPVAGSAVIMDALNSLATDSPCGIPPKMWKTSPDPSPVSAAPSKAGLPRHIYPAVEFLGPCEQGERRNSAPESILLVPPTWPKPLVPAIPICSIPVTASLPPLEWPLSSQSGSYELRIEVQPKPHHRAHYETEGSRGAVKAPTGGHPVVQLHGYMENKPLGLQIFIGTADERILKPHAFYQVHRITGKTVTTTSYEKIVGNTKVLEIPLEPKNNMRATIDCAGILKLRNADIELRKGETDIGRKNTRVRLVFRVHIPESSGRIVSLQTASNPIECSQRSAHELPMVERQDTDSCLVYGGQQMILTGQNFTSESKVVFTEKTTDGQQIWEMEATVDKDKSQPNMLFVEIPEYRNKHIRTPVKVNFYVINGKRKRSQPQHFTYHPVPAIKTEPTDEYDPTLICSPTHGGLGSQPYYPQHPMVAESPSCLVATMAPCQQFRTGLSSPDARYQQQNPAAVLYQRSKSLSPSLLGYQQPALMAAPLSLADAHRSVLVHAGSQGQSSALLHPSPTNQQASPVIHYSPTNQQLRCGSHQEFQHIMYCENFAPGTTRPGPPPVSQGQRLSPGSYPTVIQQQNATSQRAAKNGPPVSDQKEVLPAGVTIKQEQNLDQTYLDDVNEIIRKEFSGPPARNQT
Kind of experiment: DNA pull-down; 200 ug lysate protein incubated 3 h with biotinylated double-stranded oligonucleotide with the GGAAA NFAT consensus sequence of the human interleukin-2 promoter, streptavidin-agarose, blotted for NFATc2 and Sp1; cells with or without Ionomycin, with siControl or NFATc2 siRNA.

For experiment [2], the target named is T1, NFATc2 (nuclear factor of activated T-cells c2), endogenous in PaTu 8988t cells (human (endogenous in PaTu 8988t)). The experiment in a line: co-IP; 500 ug PaTu 8988t lysate immunoprecipitated with anti-NFATc2 antibody and protein G or A agarose, blotted for Sp1 and MEF 2A; cells serum-free 3 h, then 0.5 uM Ionomycin for 0, 10, 60 min.
Experiment [3] deals with T2, GST-NFATc2 fusion protein (UniProt Q13469).
T2 sequence: T1 sequence
The experiment in a line: pull-down; 3 ug bacteriologically expressed GST or GST-NFAT on glutathione agarose beads incubated with total protein of PaTu 8988t cells overexpressing Sp1, 4 °C, 15-18 h; Western blot; only the target purified. On the technique in general: In western blotting, separated proteins are transferred to a membrane and probed.

For “Sp1 (specificity protein 1), endogenous in PaTu 8988t cells (from UniProt P08047 1-785)”, the binding entry in experiment [1] and in experiment [2] was “binds” in each case.

As to “Sp1 overexpressed in PaTu 8988t cells by transfection (from UniProt P08047 1-785)”, the binding result in experiment [3] was “binds”.
